# Test results reported in patent US20170107254A1 (priority 2014, published 2017).
# Where a sequence shows no end group, the ends are not given.
# Assay: peptide made by a vendor
# Conditions: whole synthesis, high-performance liquid chromatography (by manufacturers), acetate (acetate content analysed by HPLC)
row,Sequence,purity (crude or final not stated)
1,RRRRRRRRRRRRRR,88.7%
2,RRRRRRRRRRRRRRR,92.1%
